Measurements reported in the supplement of paper PMC12819154, “High-throughput peptide-centric local stability assay extends protein–ligand identification to membrane proteins, tissues and bacteria” (Nature Structural & Molecular Biology, 2025).
Some of the results follow. Small differences around the control level are noise.

Chains of the proteins cited; added tags and fusions are not shown. Lines headed by an entry give the natural chain unless they say otherwise; changes in a name come on top.
UniProt Q6P068: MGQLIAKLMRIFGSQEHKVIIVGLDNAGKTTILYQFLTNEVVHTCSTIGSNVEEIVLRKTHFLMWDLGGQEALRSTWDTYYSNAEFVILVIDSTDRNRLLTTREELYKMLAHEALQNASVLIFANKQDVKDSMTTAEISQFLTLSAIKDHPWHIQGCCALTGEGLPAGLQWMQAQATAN
UniProt Q69ZX6: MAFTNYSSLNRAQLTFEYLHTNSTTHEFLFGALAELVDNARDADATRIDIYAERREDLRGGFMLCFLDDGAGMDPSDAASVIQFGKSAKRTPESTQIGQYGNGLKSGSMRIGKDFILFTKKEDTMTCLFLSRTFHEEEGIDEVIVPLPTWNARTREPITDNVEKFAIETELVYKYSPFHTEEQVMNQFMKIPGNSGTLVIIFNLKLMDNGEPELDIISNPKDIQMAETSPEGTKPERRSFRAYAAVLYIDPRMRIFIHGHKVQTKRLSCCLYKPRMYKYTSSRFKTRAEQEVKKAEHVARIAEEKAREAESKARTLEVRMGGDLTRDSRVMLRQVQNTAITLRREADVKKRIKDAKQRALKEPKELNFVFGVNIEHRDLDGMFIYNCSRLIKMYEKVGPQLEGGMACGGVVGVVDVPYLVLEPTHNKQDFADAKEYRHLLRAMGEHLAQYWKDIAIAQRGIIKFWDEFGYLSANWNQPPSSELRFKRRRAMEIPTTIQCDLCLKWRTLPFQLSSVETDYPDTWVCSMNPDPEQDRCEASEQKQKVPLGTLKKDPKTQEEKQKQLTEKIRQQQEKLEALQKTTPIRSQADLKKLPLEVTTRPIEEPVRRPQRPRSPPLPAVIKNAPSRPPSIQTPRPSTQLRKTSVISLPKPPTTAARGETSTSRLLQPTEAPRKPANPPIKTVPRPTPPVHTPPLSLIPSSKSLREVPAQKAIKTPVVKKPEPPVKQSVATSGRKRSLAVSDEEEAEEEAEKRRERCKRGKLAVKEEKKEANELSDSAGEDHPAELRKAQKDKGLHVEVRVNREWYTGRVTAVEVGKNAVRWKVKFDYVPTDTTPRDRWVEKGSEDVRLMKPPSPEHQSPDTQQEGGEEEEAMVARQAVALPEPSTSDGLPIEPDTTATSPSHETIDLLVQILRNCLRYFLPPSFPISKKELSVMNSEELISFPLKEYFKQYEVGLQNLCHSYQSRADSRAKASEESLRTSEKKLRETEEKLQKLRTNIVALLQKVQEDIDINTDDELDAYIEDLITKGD
UniProt Q6IRU5: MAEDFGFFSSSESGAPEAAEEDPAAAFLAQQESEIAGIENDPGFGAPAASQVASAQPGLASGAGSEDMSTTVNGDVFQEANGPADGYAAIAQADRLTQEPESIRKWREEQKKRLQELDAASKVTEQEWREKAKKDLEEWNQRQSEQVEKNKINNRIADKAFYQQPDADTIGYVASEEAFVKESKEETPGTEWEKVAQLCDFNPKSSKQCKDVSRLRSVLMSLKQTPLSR
UniProt Q6GQW0: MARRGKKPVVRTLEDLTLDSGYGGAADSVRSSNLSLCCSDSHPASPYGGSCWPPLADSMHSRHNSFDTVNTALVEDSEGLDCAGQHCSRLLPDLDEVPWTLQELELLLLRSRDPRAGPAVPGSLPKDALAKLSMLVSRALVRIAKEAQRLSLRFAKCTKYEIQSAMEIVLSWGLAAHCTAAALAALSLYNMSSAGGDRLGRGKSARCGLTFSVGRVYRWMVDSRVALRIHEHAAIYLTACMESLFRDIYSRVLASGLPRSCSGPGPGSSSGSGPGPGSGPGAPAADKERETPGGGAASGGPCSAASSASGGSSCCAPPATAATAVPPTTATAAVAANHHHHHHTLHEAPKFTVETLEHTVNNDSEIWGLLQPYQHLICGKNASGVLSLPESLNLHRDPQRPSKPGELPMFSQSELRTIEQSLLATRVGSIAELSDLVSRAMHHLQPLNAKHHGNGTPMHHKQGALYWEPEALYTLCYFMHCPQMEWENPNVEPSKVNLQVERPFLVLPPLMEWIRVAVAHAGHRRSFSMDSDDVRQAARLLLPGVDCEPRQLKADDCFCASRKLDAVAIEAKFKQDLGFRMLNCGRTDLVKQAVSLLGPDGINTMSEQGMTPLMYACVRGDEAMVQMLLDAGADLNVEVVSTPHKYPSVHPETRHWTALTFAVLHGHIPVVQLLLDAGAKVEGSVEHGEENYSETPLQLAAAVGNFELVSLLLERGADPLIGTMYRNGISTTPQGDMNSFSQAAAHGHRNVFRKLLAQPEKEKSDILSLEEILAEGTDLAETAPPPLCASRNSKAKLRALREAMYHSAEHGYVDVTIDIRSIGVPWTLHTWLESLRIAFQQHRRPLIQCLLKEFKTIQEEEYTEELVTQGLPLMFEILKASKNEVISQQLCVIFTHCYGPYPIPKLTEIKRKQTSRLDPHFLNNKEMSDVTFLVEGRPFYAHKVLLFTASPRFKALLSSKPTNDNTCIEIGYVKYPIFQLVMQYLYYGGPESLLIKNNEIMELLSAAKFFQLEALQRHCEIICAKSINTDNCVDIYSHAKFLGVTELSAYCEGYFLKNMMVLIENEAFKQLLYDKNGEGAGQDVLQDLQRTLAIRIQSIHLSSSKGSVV
UniProt Q6NZP2: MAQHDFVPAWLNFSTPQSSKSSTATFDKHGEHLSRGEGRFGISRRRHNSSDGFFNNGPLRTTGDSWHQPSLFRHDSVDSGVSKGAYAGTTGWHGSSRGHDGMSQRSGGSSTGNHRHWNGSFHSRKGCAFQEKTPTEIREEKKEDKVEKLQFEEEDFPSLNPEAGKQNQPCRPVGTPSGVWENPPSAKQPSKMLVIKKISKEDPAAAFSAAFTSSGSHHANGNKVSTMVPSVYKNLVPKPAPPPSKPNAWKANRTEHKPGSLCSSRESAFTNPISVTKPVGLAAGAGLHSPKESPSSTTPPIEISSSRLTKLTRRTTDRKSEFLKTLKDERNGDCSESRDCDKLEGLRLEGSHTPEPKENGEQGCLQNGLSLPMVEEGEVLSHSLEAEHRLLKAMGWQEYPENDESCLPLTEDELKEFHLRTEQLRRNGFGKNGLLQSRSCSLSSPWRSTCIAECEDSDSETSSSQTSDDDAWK
UniProt Q6PFX9: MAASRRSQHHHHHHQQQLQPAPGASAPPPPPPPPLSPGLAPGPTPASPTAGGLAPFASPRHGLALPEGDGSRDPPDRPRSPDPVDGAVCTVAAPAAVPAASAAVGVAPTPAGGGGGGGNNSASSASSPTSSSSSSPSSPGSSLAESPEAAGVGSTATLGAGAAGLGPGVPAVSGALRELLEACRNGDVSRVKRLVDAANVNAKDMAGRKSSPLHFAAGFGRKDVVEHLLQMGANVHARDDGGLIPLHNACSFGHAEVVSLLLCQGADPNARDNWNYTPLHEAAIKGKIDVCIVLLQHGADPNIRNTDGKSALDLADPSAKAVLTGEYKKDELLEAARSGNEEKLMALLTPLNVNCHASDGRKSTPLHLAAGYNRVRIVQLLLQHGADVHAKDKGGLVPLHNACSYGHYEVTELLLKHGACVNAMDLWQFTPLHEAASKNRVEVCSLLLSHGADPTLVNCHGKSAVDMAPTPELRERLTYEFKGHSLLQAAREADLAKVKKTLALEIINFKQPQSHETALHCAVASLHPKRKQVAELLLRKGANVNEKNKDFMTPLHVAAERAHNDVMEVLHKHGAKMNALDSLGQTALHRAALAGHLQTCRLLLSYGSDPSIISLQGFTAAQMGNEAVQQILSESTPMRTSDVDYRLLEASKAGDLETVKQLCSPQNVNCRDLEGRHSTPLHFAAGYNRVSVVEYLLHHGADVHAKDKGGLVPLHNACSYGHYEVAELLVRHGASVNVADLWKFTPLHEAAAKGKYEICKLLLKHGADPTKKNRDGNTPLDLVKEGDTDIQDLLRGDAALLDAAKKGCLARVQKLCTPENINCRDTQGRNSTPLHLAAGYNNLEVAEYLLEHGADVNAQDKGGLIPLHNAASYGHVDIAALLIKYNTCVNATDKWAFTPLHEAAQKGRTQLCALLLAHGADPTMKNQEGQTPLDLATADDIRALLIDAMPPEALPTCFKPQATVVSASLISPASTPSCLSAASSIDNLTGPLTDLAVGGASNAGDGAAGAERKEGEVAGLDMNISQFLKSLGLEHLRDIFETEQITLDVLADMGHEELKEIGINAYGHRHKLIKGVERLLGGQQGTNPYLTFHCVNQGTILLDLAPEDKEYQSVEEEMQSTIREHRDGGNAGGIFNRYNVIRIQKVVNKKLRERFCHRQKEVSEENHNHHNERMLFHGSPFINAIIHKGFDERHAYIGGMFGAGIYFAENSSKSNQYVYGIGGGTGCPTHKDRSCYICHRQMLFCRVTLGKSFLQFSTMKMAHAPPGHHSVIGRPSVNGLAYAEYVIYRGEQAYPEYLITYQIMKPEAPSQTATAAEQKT
UniProt Q6PAJ1: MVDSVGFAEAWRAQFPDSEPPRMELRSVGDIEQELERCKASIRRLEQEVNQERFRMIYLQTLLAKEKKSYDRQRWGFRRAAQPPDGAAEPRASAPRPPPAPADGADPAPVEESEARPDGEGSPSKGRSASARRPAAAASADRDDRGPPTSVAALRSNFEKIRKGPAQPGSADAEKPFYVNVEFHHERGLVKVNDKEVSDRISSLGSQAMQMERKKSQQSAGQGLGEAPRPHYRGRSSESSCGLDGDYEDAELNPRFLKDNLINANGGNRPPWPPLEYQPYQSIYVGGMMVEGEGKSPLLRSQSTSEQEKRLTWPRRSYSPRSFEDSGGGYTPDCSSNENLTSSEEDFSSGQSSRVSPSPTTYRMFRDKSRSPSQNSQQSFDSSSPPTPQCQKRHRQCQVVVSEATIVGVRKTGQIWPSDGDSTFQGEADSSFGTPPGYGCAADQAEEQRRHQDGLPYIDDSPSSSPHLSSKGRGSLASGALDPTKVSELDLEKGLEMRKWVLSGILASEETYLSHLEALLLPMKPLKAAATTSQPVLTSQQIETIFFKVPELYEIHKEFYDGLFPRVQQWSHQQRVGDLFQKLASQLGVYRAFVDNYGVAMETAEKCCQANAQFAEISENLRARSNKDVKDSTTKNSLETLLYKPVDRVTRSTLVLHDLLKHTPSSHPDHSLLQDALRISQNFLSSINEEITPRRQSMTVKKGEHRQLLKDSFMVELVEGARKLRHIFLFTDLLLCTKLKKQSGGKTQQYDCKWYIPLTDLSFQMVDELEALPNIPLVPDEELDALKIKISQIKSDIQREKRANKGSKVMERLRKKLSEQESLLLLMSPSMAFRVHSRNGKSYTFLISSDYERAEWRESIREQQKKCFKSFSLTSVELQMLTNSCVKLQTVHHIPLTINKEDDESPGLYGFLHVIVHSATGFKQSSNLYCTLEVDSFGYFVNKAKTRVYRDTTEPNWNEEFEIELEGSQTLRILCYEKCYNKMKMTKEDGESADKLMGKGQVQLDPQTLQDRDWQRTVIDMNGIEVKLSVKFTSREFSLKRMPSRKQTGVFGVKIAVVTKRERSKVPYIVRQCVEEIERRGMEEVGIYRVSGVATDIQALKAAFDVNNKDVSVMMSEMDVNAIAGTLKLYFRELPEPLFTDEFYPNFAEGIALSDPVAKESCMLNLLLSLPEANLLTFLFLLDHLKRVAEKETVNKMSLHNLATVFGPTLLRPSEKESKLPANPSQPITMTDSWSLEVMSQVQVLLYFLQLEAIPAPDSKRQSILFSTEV
UniProt Q6NVF0: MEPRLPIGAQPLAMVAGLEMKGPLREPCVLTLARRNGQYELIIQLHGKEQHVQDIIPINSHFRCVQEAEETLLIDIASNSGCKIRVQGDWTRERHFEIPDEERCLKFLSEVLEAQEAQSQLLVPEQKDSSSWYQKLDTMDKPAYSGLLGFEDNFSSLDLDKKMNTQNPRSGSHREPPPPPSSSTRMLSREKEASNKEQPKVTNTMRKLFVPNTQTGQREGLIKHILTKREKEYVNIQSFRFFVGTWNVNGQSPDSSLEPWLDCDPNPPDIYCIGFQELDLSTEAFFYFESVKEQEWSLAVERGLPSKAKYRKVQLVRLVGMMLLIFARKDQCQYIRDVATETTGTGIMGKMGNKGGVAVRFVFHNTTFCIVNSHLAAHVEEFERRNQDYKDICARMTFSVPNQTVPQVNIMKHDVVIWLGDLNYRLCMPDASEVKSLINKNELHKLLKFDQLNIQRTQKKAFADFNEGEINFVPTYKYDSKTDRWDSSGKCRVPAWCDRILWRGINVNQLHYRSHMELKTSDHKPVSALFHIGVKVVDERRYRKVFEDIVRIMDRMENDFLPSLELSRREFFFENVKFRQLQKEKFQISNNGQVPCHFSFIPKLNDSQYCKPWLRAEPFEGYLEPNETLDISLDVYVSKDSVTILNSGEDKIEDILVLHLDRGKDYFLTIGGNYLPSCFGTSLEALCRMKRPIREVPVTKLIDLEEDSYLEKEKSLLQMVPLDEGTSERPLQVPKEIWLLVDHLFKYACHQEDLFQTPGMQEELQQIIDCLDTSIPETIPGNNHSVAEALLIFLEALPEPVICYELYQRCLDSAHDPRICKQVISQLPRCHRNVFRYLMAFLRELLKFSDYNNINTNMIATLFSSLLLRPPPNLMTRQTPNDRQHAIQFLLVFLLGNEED

compound: CN[C@@H]1C[C@H]2O[C@@](C)([C@@H]1OC)n1c3ccccc3c3c4c(c5c6ccccc6n2c5c31)C(=O)NC4 [staurosporine]; test: log2 fold change of tryptic peptide abundance, ligand vs vehicle (limited proteolysis) (log2 ratio); higher = more trypsin-susceptible (destabilized); conditions: ligand concentration: 20 uM; sample: mouse liver crude lysate; replicate design: treated separately

Question: With “UniProt Q6P5F9 (peptide sequence: QMLPLNTNIR, peptide start residue: 296)” as the target, how does the log2 fold change read?
Answer: 0.176

Question: For “UniProt Q6P6M7 (peptide sequence: ASVVSGADR, peptide start residue: 468)”, which log2 fold change is on record?
Answer: -0.149

Question: For “UniProt Q6P068 (peptide sequence: VIIVGLDNAGK, peptide start residue: 19)”, which log2 fold change is on record?
Answer: -0.203

Question: “UniProt Q6A009 (peptide sequence: THLPDFLICK, peptide start residue: 860)” was tested. Which log2 fold change did it give?
Answer: 0.249

Question: Which log2 fold change does the source give for “UniProt Q6NXJ0 (peptide sequence: LDGEAWPGALDIEKEK, peptide start residue: 329)” here?
Answer: -0.636

Question: How did the log2 fold change turn out when “UniProt Q69ZX6 (peptide sequence: KPANPPIK, peptide start residue: 674)” was run?
Answer: -0.289

Question: For “UniProt Q6QD59 (peptide sequence: QRIQELEQSAR, peptide start residue: 56)”, which log2 fold change is on record?
Answer: -0.245

Question: How did the log2 fold change turn out when “UniProt Q6P5D8 (peptide sequence: KQELDEQEK, peptide start residue: 1943)” was run?
Answer: -0.438

Question: “UniProt Q6IRU5 (peptide sequence: LQELDAASKVTEQEWR, peptide start residue: 114)” was tested. Which log2 fold change did it give?
Answer: -0.189

Question: “UniProt Q6PIX5 (peptide sequence: AAAALVK, peptide start residue: 218)” was tested. Which log2 fold change did it give?
Answer: -0.278

Question: Which log2 fold change does the source give for “UniProt Q6NSR3 (peptide sequence: LGELSAPGTR, peptide start residue: 232)” here?
Answer: 0.0353

Question: For “UniProt Q6NZM9 (peptide sequence: DQPVELLNPAR, peptide start residue: 14)”, which log2 fold change is on record?
Answer: -0.505

Question: For “UniProt Q6GQW0 (peptide sequence: LDPHFLNNK, peptide start residue: 833)”, which log2 fold change is on record?
Answer: -0.174

Question: For “UniProt Q6P2K6 (peptide sequence: TKNDDDIMDPISK, peptide start residue: 690)”, which log2 fold change is on record?
Answer: -0.312

Question: For “UniProt Q6NZP2 (peptide sequence: VSTMVPSVYK, peptide start residue: 224)”, which log2 fold change is on record?
Answer: 0.299

Question: How did the log2 fold change turn out when “UniProt Q6P5E6 (peptide sequence: FLNELIK, peptide start residue: 90)” was run?
Answer: -0.125

Question: Which log2 fold change does the source give for “UniProt Q6P5B0 (peptide sequence: LHNELQSGTLSLGK, peptide start residue: 58)” here?
Answer: -0.163

Question: With “UniProt Q6PNC0 (peptide sequence: GSEDFLVIHAR, peptide start residue: 2677)” as the target, how does the log2 fold change read?
Answer: 0.221

Question: With “UniProt Q6NZR5 (peptide sequence: DVAVVEGGLR, peptide start residue: 990)” as the target, how does the log2 fold change read?
Answer: 0.183

Question: For “UniProt Q6PAL8 (peptide sequence: RLVTISPNNKPK, peptide start residue: 1091)”, which log2 fold change is on record?
Answer: 0.684

Question: For “UniProt Q6P549 (peptide sequence: LGVVFEKEKDR, peptide start residue: 378)”, which log2 fold change is on record?
Answer: -0.304

Question: With “UniProt Q6PFX9 (peptide sequence: LVDAANVNAK, peptide start residue: 194)” as the target, how does the log2 fold change read?
Answer: -0.2

Question: “UniProt Q6NV72 (peptide sequence: TPEHTSTPELNSPQR, peptide start residue: 524)” was tested. Which log2 fold change did it give?
Answer: -0.22

Question: How did the log2 fold change turn out when “UniProt Q6NSU3 (peptide sequence: FYLPILVPSAKK, peptide start residue: 155)” was run?
Answer: 0.223

Question: Which log2 fold change does the source give for “UniProt Q6PAJ1 (peptide sequence: GSLASGALDPTKVSELDLEK, peptide start residue: 474)” here?
Answer: -0.339

Question: Which log2 fold change does the source give for “UniProt Q6NVF0 (peptide sequence: GINVNQLHYR, peptide start residue: 504)” here?
Answer: 0.505

Question: How did the log2 fold change turn out when “UniProt Q6P3Y5 (peptide sequence: MATPYMNHYMR, peptide start residue: 460)” was run?
Answer: -0.486

Question: Which log2 fold change does the source give for “UniProt Q6P2L6 (peptide sequence: KSLPASITMHK, peptide start residue: 477)” here?
Answer: 0.667

Question: Which log2 fold change does the source give for “UniProt Q6P4T1 (peptide sequence: AVVAQELNK, peptide start residue: 808)” here?
Answer: 0.233

Question: Which log2 fold change does the source give for “UniProt Q69ZW3 (peptide sequence: DTDFTKKPCASLR, peptide start residue: 774)” here?
Answer: -0.229

Question: “UniProt Q6PFQ7 (peptide sequence: EGPLFIHR, peptide start residue: 569)” was tested. Which log2 fold change did it give?
Answer: -0.0369

Question: For “UniProt Q6GV12 (peptide sequence: AKPEVVDKTA, peptide start residue: 323)”, which log2 fold change is on record?
Answer: -0.241

Question: For “UniProt Q6S5J6 (peptide sequence: NTASLNSR, peptide start residue: 19)”, which log2 fold change is on record?
Answer: 0.144

Question: “UniProt Q6RI63 (peptide sequence: THWDSPYTGR, peptide start residue: 737)” was tested. Which log2 fold change did it give?
Answer: 0.493

Question: “UniProt Q6P1C1 (peptide sequence: FKEHEDCTLVLHKV, peptide start residue: 476)” was tested. Which log2 fold change did it give?
Answer: -0.131

Question: How did the log2 fold change turn out when “UniProt Q6PGC1 (peptide sequence: VLIDSVLR, peptide start residue: 1330)” was run?
Answer: 0.35
